Experimental data published in patent publication US20040110707A1, “Method of treating neurological diseases” (priority 2001, published 2004).

Assay: HPLC analysis of endogenous retinoids in parts of the adult mouse brain
Details: reverse phase HPLC

SMILES: CC1=C(/C=C/C(C)=C/C=C/C(C)=C/CO)C(C)(C)CCC1 [all-trans-retinol, all-trans retinol]
- level of all-trans-retinol (brainstem): 13.5 ± 4.1 pg/mg
- level of all-trans-retinol (cerebellum): 38.9 ± 25.5 pg/mg
- level of all-trans-retinol (cerebrum): 9.2±2.3 pg/mg tissue
